Experimental data: PubChem BioAssay AID540303 (National Center for Advancing Translational Sciences (NCATS), 2011)
Out of some 330,000 compounds screened, about 1,000 (0.3%) were called active. This list was built around the results that the source calls inconclusive (neither active nor inactive); the mix of calls is not that of the screen. Calls follow the shape of the dose curve; as a rule, active = well fitted inhibition curve with a large enough effect; inconclusive = small, poorly fitted or top-dose-only effect; inactive = no such curve, though single readings can be large or run the other way; tested in mouse RAW 264.7 cells. A potency beside an inconclusive call is a rough fit, not a confirmed value.

experiment: qHTS for Inhibitors of Cell Surface uPA Generation; details: cell surface uPA generation assay; series mostly up to 38.3 µM; also: nearly all actives have a fitted effect of over 55% in size
Method in brief: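 Murine RAW 264.7 cells are treated for 24 h with compound up to 38.3 uM final. Cell ATP, measured by ATP-Lite, remains high if blocking the uPA cascade prevents LF from reaching the cytoplasm.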
Potency is read from the fitted curve at half-maximal effect.

Row | Compound | Potency
1 | CC1=Nc2cc(C(=O)N3CCCC3)ccc2Sc2c(C)ccc(C)c21 | active: 3.98 µM
2 | C[C@]1(O)CC(=O)C=C[C@H]1Nc1ccccc1 | active: 8.91 µM
3 | COc1ccc(-c2nc(-c3ccc(C(=O)O)cc3)no2)cc1 | inconclusive: 7.08 µM [inhibitor, partial curve, poor fit]
4 | CCN(CC(=O)NC(C)(C)C)C(=O)c1ccccc1SCC(=O)NC1CCCCCCC1 | inconclusive: 3.16 µM [inhibitor, partial curve, poor fit]
5 | Cc1cc(=O)oc2c(O)c(O)ccc12 | inconclusive: 7.94 µM [inhibitor, single point]
6 | CCOC(=O)C(CC(=O)O)NCc1ccco1 (stereo unspecified) | inactive
7 | O=C(CC1CCCC1)Nc1ccc2c(c1)CCC2 | inactive
8 | CCS(=O)(=O)c1nc2ccccc2n1Cc1ccccc1Cl | inconclusive: 14.1 µM [inhibitor, partial curve, poor fit]
9 | CN(C)c1ccc(-c2n[nH]c(=S)n2-c2ccccc2)cc1 | inactive
10 | CC1CCCN(C(=O)COc2ccc3c(c2)OCO3)C1 (stereo unspecified) | inactive
11 | Fc1ccc(-c2nnc3ccc(N4CCc5ccccc5C4)nn23)cc1 | inconclusive: 8.91 µM [inhibitor, single point]
12 | COc1ccc(C(=O)COC(=O)CCN2C(=O)C3C4C=CC(C5CC45)C3C2=O)cc1 (stereo unspecified) | inconclusive: 3.16 µM [inhibitor, single point]
13 | CCOC(=O)c1cccc(C(=O)Nc2nc3ccc(OC)cc3s2)n1 | inconclusive: 1.78 µM [inhibitor, full curve, poor fit]
14 | O=C(N/N=C/c1ccc2c(c1)OCO2)c1cccc(NC(=O)c2ccccc2Cl)c1 | inactive
15 | O=C(N/N=C/c1cc(Cl)ccc1O)c1ccccc1Br | active: 4.47 µM
16 | COc1ccc(-n2nc3c(N4CCC(C(=O)NCCc5ccco5)CC4)nnc(C)c3c2C)cc1 | inconclusive: 11.2 µM [inhibitor, single point]
17 | COc1ccc(CCN(C)C(=O)c2oc3ccccc3c2C)cc1OC | inconclusive: 10 µM [inhibitor, partial curve, poor fit]
18 | Cc1ccc(S(=O)(=O)NCc2cccnc2)cc1C(=O)N1CCCC1 | inactive
19 | Cc1cc(C)nc(NNS(=O)(=O)c2ccc(F)c(Cl)c2)n1 | inactive
20 | CC(/C=N/NC(=O)c1nnn(-c2nonc2N)c1C(C)C)=C\c1ccccc1 | inconclusive: 10 µM [inhibitor, single point]
21 | Cc1ccc(C(=O)Nc2cccc(C(F)(F)F)c2)cc1Nc1ccccn1 | inconclusive: 12.6 µM [inhibitor, single point]
22 | Cc1ccc(CNCCCn2cnc(C(=O)Nc3ccc(C)c(C)c3)n2)o1 | inconclusive: 11.2 µM [inhibitor, single point]
23 | C(=C\n1nnc2ccccc21)/c1ccccn1 | inconclusive: 10 µM [inhibitor, partial curve]
24 | c1ccc(-c2nnc3sc(CN4CCc5ccccc54)cn23)cc1 | inconclusive: 3.98 µM [inhibitor, partial curve, poor fit]

Structural class: the entries above with a furan ring, fused or not (4)
Row | Compound | Potency
6 | CCOC(=O)C(CC(=O)O)NCc1ccco1 (stereo unspecified) | inactive
16 | COc1ccc(-n2nc3c(N4CCC(C(=O)NCCc5ccco5)CC4)nnc(C)c3c2C)cc1 | inconclusive: 11.2 µM [inhibitor, single point]
17 | COc1ccc(CCN(C)C(=O)c2oc3ccccc3c2C)cc1OC | inconclusive: 10 µM [inhibitor, partial curve, poor fit]
22 | Cc1ccc(CNCCCn2cnc(C(=O)Nc3ccc(C)c(C)c3)n2)o1 | inconclusive: 11.2 µM [inhibitor, single point]

(next part)

Row | Compound | Potency
25 | O=C(N/N=C/c1cc(O)ccc1Br)c1cccnc1 | active: 10 µM
26 | CC(=O)N1CCCN(C(=O)c2cc(COc3c(F)cccc3F)on2)CC1 | inactive
27 | C=CCN(c1ccc(Cl)cc1)S(=O)(=O)c1cccc(C(=O)OCC(=O)N(C)C)c1 | inconclusive: 3.16 µM [inhibitor, full curve, poor fit]
28 | CCOc1ccc2nc(N(CCCN(C)C)C(=O)c3ccc4c(c3)CCCC4)sc2c1 | inconclusive: 12.6 µM [inhibitor, single point]
29 | Cc1ccc(NC(=O)CSc2nc(-c3ccco3)nc3cc(=O)[nH]n23)c(Cl)c1 | inconclusive: 4.47 µM [inhibitor, partial curve, poor fit]
30 | Cn1c(CNc2ccc(O)cc2)nc2ccccc21 | inconclusive: 5.62 µM [inhibitor, partial curve, poor fit]
31 | COc1ccc(-c2nc(NC(=O)C3CC(=O)N(Cc4ccco4)C3)sc2C)cc1 (stereo unspecified) | inconclusive: 10 µM [inhibitor, single point]
32 | CS(=O)c1ccccc1-c1nc(-c2cccc(Cl)c2)no1 (stereo unspecified) | inactive
33 | CC(C)Oc1cccc(C(=O)NC(=S)Nc2ccc(N3CCN(C)CC3)cc2)c1 | inconclusive: 12.6 µM [inhibitor, single point]
34 | COc1ccc(-n2cc(-c3ccc(OC(F)F)cc3)[n+]3c2CCCCC3)cc1 | inconclusive: 3.98 µM [inhibitor, full curve]
35 | Cc1ccc(Cl)cc1N1CCN(C(=O)CN(C2CCCCC2)S(C)(=O)=O)CC1 | inactive
36 | COc1ccc([N+](=O)[O-])cc1Nc1c2ccccc2nc2ccccc12 | inconclusive: 1.41 µM [inhibitor, full curve, poor fit]
37 | CCOC(=O)c1[nH]c(C)c(C(=O)Nc2ccccc2C)c1C | inconclusive: 1 µM [inhibitor, full curve, poor fit]
38 | CCN(CC)C(=O)COc1ccc(/C=C(\C#N)S(=O)(=O)c2ccccc2)cc1OC | inconclusive: 0.0079 µM [inhibitor, full curve, poor fit]
39 | CCN(C(=O)CN1C(=O)/C(=C/c2ccc(F)cc2)SC1=S)C1CCS(=O)(=O)C1 (stereo unspecified) | inconclusive: 7.94 µM [inhibitor, partial curve, poor fit]
40 | O=C1Nc2ccccc2/C1=C/c1cccnc1 | inactive
41 | O=C(O)c1ccccc1OCc1ccccc1Cl | inconclusive: 2.82 µM [inhibitor, full curve, poor fit]
42 | CCOC(=O)c1cccc(NC(=O)c2cc3ccccc3o2)c1 | inconclusive: 11.2 µM [inhibitor, single point]
43 | COc1ccc(C2NCCc3c2[nH]c2ccccc32)cc1COc1ccc(F)cc1 (stereo unspecified) | inconclusive: 28.2 µM [inhibitor, single point]
44 | CCc1ccc(CN(C)Cc2nc(Cc3cccc(C(F)(F)F)c3)no2)nc1 | inactive
45 | COC(=O)c1c(C)noc1-c1ccc(Cl)cc1 | inconclusive: 12.6 µM [inhibitor, single point]
46 | O=C(C1=C[C@H](c2ccc(C(F)(F)F)cc2)C[C@H](OCc2ccc(CO)cc2)O1)N1CCN(Cc2ccc3c(c2)OCO3)CC1 | inconclusive: 12.6 µM [inhibitor, single point]
47 | Cn1c(SCC(=O)NC2CCCC2)nnc1C(F)(F)F | inconclusive: 2.82 µM [inhibitor, single point]
48 | CCNC(=O)CC1C(=O)N(c2ccc(OC)cc2)C(=O)N1CCOC (stereo unspecified) | inconclusive: 1 µM [inhibitor, partial curve, poor fit]

Row | Compound | Potency
49 | OCCNCC12CC3CC(CC(C3)C1)C2 | inactive
50 | S=C(NCCN1CCOCC1)Nc1ccc(-c2nc3ccccc3[nH]2)cc1 | active: 10 µM
51 | CN1CCN(CCCNC(=O)c2cc3c(=O)n(C)c4ccccc4c3s2)CC1 | inconclusive: 3.98 µM [inhibitor, partial curve, poor fit]
52 | C=CCOC(=O)C(=O)/C=C/c1ccc2c(c1)Cc1ccccc1-2 | inactive
53 | O=S(=O)(NCc1ccc(F)cc1)c1ccc(Br)cc1Br | inconclusive: 5.62 µM [inhibitor, partial curve, poor fit]
54 | O=C(Nc1cccc(NC(=O)c2ccccc2F)c1)c1ccccc1 | inconclusive: 12.6 µM [inhibitor, partial curve, poor fit]
55 | CC1=C(C(=O)OCc2ccccc2)C(c2ccc(-c3ccccc3)cc2)NC(=O)N1CCCCCC(=O)O (stereo unspecified) | inactive
56 | Cc1ccc(-c2csc(NC(=O)c3cccc(C)c3)c2C(=O)O)cc1 | inactive
57 | Cc1nc(SCC(=O)Nc2nccs2)c(C#N)c(C)c1C | active: 1 µM
58 | CCOC(=O)c1nc(S(C)(=O)=O)ncc1Cl | inconclusive: 2 µM [inhibitor, full curve, poor fit]
59 | COc1ccc(Br)cc1/C=N/NC(=O)C[n+]1ccccc1 | inconclusive: 28.2 µM [inhibitor, single point]
60 | COc1cc(C(=O)Nc2ccc3c(c2)nc(C)n3C)cc(OC)c1OC | active: 5.62 µM
61 | COc1ccc2[nH]c3c(N4CCc5ccccc5C4)ncnc3c2c1 | inconclusive: 2.82 µM [inhibitor, partial curve, poor fit]
62 | CCCCCCCCNc1ncnc2ccccc12 | inactive
63 | COc1ccc(COC(=O)C2CCN(C(=O)c3ccc(Cl)cc3)CC2)cc1F | inconclusive: 4.47 µM [inhibitor, single point]
64 | NC(=O)[C@H]1CC2(CC(c3cccc(NC(=O)COc4ccc(Cl)cc4)c3)=NO2)CN1C(=O)C(c1ccccc1)c1ccccc1 (stereo partly specified) | inconclusive: 12.6 µM [inhibitor, single point]
65 | C=CS(=O)(=O)N(Cc1ccccc1Br)[C@H](CO)CC(C)C | inconclusive: 11.2 µM [inhibitor, partial curve, poor fit]
66 | COc1ccc2c(=O)c3ccccc3oc2c1 | inconclusive: 5.62 µM [inhibitor, partial curve, poor fit]
67 | CCOC(=O)c1cnc(-n2nc(C)cc2C)nc1NNc1ncc(-c2ccccc2)cn1 | inactive
68 | O=C(O)C1Nc2c(O)cc(Cl)c([N+](=O)[O-])c2C2C=CCC12 (stereo unspecified) | inactive
69 | CCOCCCNC(=O)c1cc2c(=O)n3cccc(C)c3nc2s1 | inactive
70 | Oc1c(CN2CCN(c3ccc(F)cc3)CC2)cc(Cl)c2cccnc12 | inconclusive: 2 µM [inhibitor, full curve, poor fit]
71 | O=c1[nH]c(NCCCO)nc2c1C1(CCCC1)Cc1ccccc1-2 | inactive
